Amino acid sequences for entries named in this document (tags omitted). A change or cut given only in a name is not applied to a line headed by its entry.
UniProt P35070: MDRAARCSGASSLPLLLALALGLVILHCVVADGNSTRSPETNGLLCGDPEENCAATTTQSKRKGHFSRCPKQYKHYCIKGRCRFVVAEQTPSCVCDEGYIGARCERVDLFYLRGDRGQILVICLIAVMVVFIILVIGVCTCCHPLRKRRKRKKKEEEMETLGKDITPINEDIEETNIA

According to patent publication US20090131308A1, “Splice Variants of ErbB Ligands, Compositions and Uses Thereof” (AGOS BIOTECH LTD., priority 2003, published 2009):

Target: Betacellulin (recombinant, immobilized) (human or bovine) (UniProt P35070)
Assay: BIAcore 3000, Betacellulin amine-coupled to CM-5 chip, peptide injected

- binding: no binding
Binder: NSDSECPLSHDGYCLHDGVCMYIEALDKYACK [Human EGF (1-32)]

These are yes or no findings as the source states them, for the method shown.
